No constants are given. Whether binding was seen depends on the method and setting. Binding seen in cells or lysates may run through a third protein. Sequences can lack the tags named with a protein.
Biological target: T1, Mbp1 yEmVenus PCA fusion protein (S. cerevisiae) (UniProt P39678)
T1 sequence: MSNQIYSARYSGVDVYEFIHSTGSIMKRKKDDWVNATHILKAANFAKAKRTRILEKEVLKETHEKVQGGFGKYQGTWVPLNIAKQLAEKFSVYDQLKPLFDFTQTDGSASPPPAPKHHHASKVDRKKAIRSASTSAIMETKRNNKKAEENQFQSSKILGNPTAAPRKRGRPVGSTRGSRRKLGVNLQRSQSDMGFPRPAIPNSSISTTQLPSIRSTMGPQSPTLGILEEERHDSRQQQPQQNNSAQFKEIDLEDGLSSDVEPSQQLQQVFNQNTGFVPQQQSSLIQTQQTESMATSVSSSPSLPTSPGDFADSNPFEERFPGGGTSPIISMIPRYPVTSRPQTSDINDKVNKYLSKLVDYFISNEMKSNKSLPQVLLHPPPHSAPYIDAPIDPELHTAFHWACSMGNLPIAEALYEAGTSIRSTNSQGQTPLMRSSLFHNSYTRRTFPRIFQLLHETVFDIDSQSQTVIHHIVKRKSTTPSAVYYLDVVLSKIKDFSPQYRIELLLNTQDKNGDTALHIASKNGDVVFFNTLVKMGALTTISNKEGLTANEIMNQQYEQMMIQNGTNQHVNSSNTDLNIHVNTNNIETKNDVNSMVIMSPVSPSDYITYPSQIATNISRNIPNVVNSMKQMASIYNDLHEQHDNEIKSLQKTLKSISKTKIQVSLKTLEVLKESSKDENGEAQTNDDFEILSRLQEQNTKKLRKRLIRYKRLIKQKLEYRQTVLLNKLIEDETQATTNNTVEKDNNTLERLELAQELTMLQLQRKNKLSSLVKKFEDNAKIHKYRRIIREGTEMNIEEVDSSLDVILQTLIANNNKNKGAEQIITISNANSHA
Assay: split reporter; yeast enhanced monomeric Venus (yEmVenus) protein-fragment complementation assay (PCA); VF[1] and VF[2] fusions co-expressed from p413ADHcen and p415ADHcen in wild-type MatA (BY4741) yeast; fluorescence microscopy of living cells at room temperature with image analysis (threshold 225 against autofluorescence of mock cells); the three Cdc28 PCAs with Swi4, Swi6 and Mbp1 were also read in 30 deletion strains and in elm1T551A

B1: Swi4-VF[2] fusion protein (protein, UniProt P25302 1-1093)
chain: MPFDVLISNQKDNTNHQNITPISKSVLLAPHSNHPVIEIATYSETDVYECYIRGFETKIVMRRTKDDWINITQVFKIAQFSKTKRTKILEKESNDMQHEKVQGGYGRFQGTWIPLDSAKFLVNKYEIIDPVVNSILTFQFDPNNPPPKRSKNSILRKTSPGTKITSPSSYNKTPRKKNSSSSTSATTTAANKKGKKNASINQPNPSPLQNLVFQTPQQFQVNSSMNIMNNNDNHTTMNFNNDTRHNLINNISNNSNQSTIIQQQKSIHENSFNNNYSATQKPLQFFPIPTNLQNKNVALNNPNNNDSNSYSHNIDNVINSSNNNNNGNNNNLIIVPDGPMQSQQQQQHHHEYLTNNFNHSMMDSITNGNSKKRRKKLNQSNEQQFYNQQEKIQRHFKLMKQPLLWQSFQNPNDHHNEYCDSNGSNNNNNTVASNGSSIEVFSSNENDNSMNMSSRSMTPFSAGNTSSQNKLENKMTDQEYKQTILTILSSERSSDVDQALLATLYPAPKNFNINFEIDDQGHTPLHWATAMANIPLIKMLITLNANALQCNKLGFNCITKSIFYNNCYKENAFDEIISILKICLITPDVNGRLPFHYLIELSVNKSKNPMIIKSYMDSIILSLGQQDYNLLKICLNYQDNIGNTPLHLSALNLNFEVYNRLVYLGASTDILNLDNESPASIMNKFNTPAGGSNSRNNNTKADRKLARNLPQKNYYQQQQQQQQPQNNVKIPKIIKTQHPDKEDSTADVNIAKTDSEVNESQYLHSNQPNSTNMNTIMEDLSNINSFVTSSVIKDIKSTPSKILENSPILYRRRSQSISDEKEKAKDNENQVEKKKDPLNSVKTAMPSLESPSSLLPIQMSPLGKYSKPLSQQINKLNTKVSSLQRIMGEEIKNLDNEVVETESSISNNKKRLITIAHQIEDAFDSVSNKTPINSISDLQSRIKETSSKLNSEKQNFIQSLEKSQALKLATIVQDEESKVDMNTNSSSHPEKQEDEEPIPKSTSETSSPKNTKADAKFSNTVQESYDVNETLRLATELTILQFKRRMTTLKISEAKSKINSSVKLDKYRNLIGITIENIDSKLDDIEKDLRANA
binding: no binding

Source: publication PMC2198942
